These are yes or no findings as the source states them, for the method shown. In cells and extracts the contact can be indirect. Some entries that bind do so weakly or less than the wild type.

First the molecules themselves.
B1: Cas3 H74A (E. coli K12 Type I-E) (protein, UniProt P38036 1-888)
chain: MEPFKYICHYWGKSSKSLTKGNDIHLLIYHCLDVAAVADCWWDQSVVLQNTFCRNEMLSKQRVKAWLLFFIALADIGKFDIRFQYKSAESWLKLNPATPSLNGPSTQMCRKFNHGAAGLYWFNQDSLSEQSLGDFFSFFDAAPHPYESWFPWVEAVTGHHGFILHSQDQDKSRWEMPASLASYAAQDKQAREEWISVLEALFLTPAGLSINDIPPDCSSLLAGFCSLADWLGSWTTTNTFLFNEDAPSDINALRTYFQDRQQDASRVLELSGLVSNKRCYEGVHALLDNGYQPRQLQVLVDALPVAPGLTVIEAPTGSGKTETALAYAWKLIDQQIADSVIFALPTQATANAMLTRMEASASHLFSSPNLILAHGNSRFNHLFQSIKSRAITEQGQEEAWVQCCQWLSQSNKKVFLGQIGVCTIDQVLISVLPVKHRFIRGLGIGRSVLIVDEVHAYDTYMNGLLEAVLKAQADVGGSVILLSATLPMKQKQKLLDTYGLHTDPVENNSAYPLINWRGVNGAQRFDLLAHPEQLPPRFSIQPEPICLADMLPDLTMLERMIAAANAGAQVCLICNLVDVAQVCYQRLKELNNTQVDIDLFHARFTLNDRREKENRVISNFGKNGKRNVGRILVATQVVEQSLDVDFDWLITQHCPADLLFQRLGRLHRHHRKYRPAGFEIPVATILLPDGEGYGRHEHIYSNVRVMWRTQQHIEELNGASLFFPDAYRQWLDSIYDDAEMDEPEWVGNGMDKFESAECEKRFKARKVLQWAEEYSLQDNDETILAVTRDGEMSLPLLPYVQTSSGKQLLDGQVYEDLSHEQQYEALALNRVNVPFTWKRSFSEVVDEDGLLWLEGKQNLDGWVWQGNSIVITYTGDEGMTRVIPANPK
B2: Cas3 S483A/T485A (E. coli K12 Type I-E) (protein, UniProt P38036 1-888)
chain: MEPFKYICHYWGKSSKSLTKGNDIHLLIYHCLDVAAVADCWWDQSVVLQNTFCRNEMLSKQRVKAWLLFFIALHDIGKFDIRFQYKSAESWLKLNPATPSLNGPSTQMCRKFNHGAAGLYWFNQDSLSEQSLGDFFSFFDAAPHPYESWFPWVEAVTGHHGFILHSQDQDKSRWEMPASLASYAAQDKQAREEWISVLEALFLTPAGLSINDIPPDCSSLLAGFCSLADWLGSWTTTNTFLFNEDAPSDINALRTYFQDRQQDASRVLELSGLVSNKRCYEGVHALLDNGYQPRQLQVLVDALPVAPGLTVIEAPTGSGKTETALAYAWKLIDQQIADSVIFALPTQATANAMLTRMEASASHLFSSPNLILAHGNSRFNHLFQSIKSRAITEQGQEEAWVQCCQWLSQSNKKVFLGQIGVCTIDQVLISVLPVKHRFIRGLGIGRSVLIVDEVHAYDTYMNGLLEAVLKAQADVGGSVILLAAALPMKQKQKLLDTYGLHTDPVENNSAYPLINWRGVNGAQRFDLLAHPEQLPPRFSIQPEPICLADMLPDLTMLERMIAAANAGAQVCLICNLVDVAQVCYQRLKELNNTQVDIDLFHARFTLNDRREKENRVISNFGKNGKRNVGRILVATQVVEQSLDVDFDWLITQHCPADLLFQRLGRLHRHHRKYRPAGFEIPVATILLPDGEGYGRHEHIYSNVRVMWRTQQHIEELNGASLFFPDAYRQWLDSIYDDAEMDEPEWVGNGMDKFESAECEKRFKARKVLQWAEEYSLQDNDETILAVTRDGEMSLPLLPYVQTSSGKQLLDGQVYEDLSHEQQYEALALNRVNVPFTWKRSFSEVVDEDGLLWLEGKQNLDGWVWQGNSIVITYTGDEGMTRVIPANPK
B3: Cas3 D75A (E. coli K12 Type I-E) (protein, UniProt P38036 1-888)
chain: MEPFKYICHYWGKSSKSLTKGNDIHLLIYHCLDVAAVADCWWDQSVVLQNTFCRNEMLSKQRVKAWLLFFIALHAIGKFDIRFQYKSAESWLKLNPATPSLNGPSTQMCRKFNHGAAGLYWFNQDSLSEQSLGDFFSFFDAAPHPYESWFPWVEAVTGHHGFILHSQDQDKSRWEMPASLASYAAQDKQAREEWISVLEALFLTPAGLSINDIPPDCSSLLAGFCSLADWLGSWTTTNTFLFNEDAPSDINALRTYFQDRQQDASRVLELSGLVSNKRCYEGVHALLDNGYQPRQLQVLVDALPVAPGLTVIEAPTGSGKTETALAYAWKLIDQQIADSVIFALPTQATANAMLTRMEASASHLFSSPNLILAHGNSRFNHLFQSIKSRAITEQGQEEAWVQCCQWLSQSNKKVFLGQIGVCTIDQVLISVLPVKHRFIRGLGIGRSVLIVDEVHAYDTYMNGLLEAVLKAQADVGGSVILLSATLPMKQKQKLLDTYGLHTDPVENNSAYPLINWRGVNGAQRFDLLAHPEQLPPRFSIQPEPICLADMLPDLTMLERMIAAANAGAQVCLICNLVDVAQVCYQRLKELNNTQVDIDLFHARFTLNDRREKENRVISNFGKNGKRNVGRILVATQVVEQSLDVDFDWLITQHCPADLLFQRLGRLHRHHRKYRPAGFEIPVATILLPDGEGYGRHEHIYSNVRVMWRTQQHIEELNGASLFFPDAYRQWLDSIYDDAEMDEPEWVGNGMDKFESAECEKRFKARKVLQWAEEYSLQDNDETILAVTRDGEMSLPLLPYVQTSSGKQLLDGQVYEDLSHEQQYEALALNRVNVPFTWKRSFSEVVDEDGLLWLEGKQNLDGWVWQGNSIVITYTGDEGMTRVIPANPK
B4: Cas3 D452N (E. coli K12 Type I-E) (protein, UniProt P38036 1-888)
chain: MEPFKYICHYWGKSSKSLTKGNDIHLLIYHCLDVAAVADCWWDQSVVLQNTFCRNEMLSKQRVKAWLLFFIALHDIGKFDIRFQYKSAESWLKLNPATPSLNGPSTQMCRKFNHGAAGLYWFNQDSLSEQSLGDFFSFFDAAPHPYESWFPWVEAVTGHHGFILHSQDQDKSRWEMPASLASYAAQDKQAREEWISVLEALFLTPAGLSINDIPPDCSSLLAGFCSLADWLGSWTTTNTFLFNEDAPSDINALRTYFQDRQQDASRVLELSGLVSNKRCYEGVHALLDNGYQPRQLQVLVDALPVAPGLTVIEAPTGSGKTETALAYAWKLIDQQIADSVIFALPTQATANAMLTRMEASASHLFSSPNLILAHGNSRFNHLFQSIKSRAITEQGQEEAWVQCCQWLSQSNKKVFLGQIGVCTIDQVLISVLPVKHRFIRGLGIGRSVLIVNEVHAYDTYMNGLLEAVLKAQADVGGSVILLSATLPMKQKQKLLDTYGLHTDPVENNSAYPLINWRGVNGAQRFDLLAHPEQLPPRFSIQPEPICLADMLPDLTMLERMIAAANAGAQVCLICNLVDVAQVCYQRLKELNNTQVDIDLFHARFTLNDRREKENRVISNFGKNGKRNVGRILVATQVVEQSLDVDFDWLITQHCPADLLFQRLGRLHRHHRKYRPAGFEIPVATILLPDGEGYGRHEHIYSNVRVMWRTQQHIEELNGASLFFPDAYRQWLDSIYDDAEMDEPEWVGNGMDKFESAECEKRFKARKVLQWAEEYSLQDNDETILAVTRDGEMSLPLLPYVQTSSGKQLLDGQVYEDLSHEQQYEALALNRVNVPFTWKRSFSEVVDEDGLLWLEGKQNLDGWVWQGNSIVITYTGDEGMTRVIPANPK
B5: Cas3 K78A (E. coli K12 Type I-E) (protein, UniProt P38036 1-888)
chain: MEPFKYICHYWGKSSKSLTKGNDIHLLIYHCLDVAAVADCWWDQSVVLQNTFCRNEMLSKQRVKAWLLFFIALHDIGAFDIRFQYKSAESWLKLNPATPSLNGPSTQMCRKFNHGAAGLYWFNQDSLSEQSLGDFFSFFDAAPHPYESWFPWVEAVTGHHGFILHSQDQDKSRWEMPASLASYAAQDKQAREEWISVLEALFLTPAGLSINDIPPDCSSLLAGFCSLADWLGSWTTTNTFLFNEDAPSDINALRTYFQDRQQDASRVLELSGLVSNKRCYEGVHALLDNGYQPRQLQVLVDALPVAPGLTVIEAPTGSGKTETALAYAWKLIDQQIADSVIFALPTQATANAMLTRMEASASHLFSSPNLILAHGNSRFNHLFQSIKSRAITEQGQEEAWVQCCQWLSQSNKKVFLGQIGVCTIDQVLISVLPVKHRFIRGLGIGRSVLIVDEVHAYDTYMNGLLEAVLKAQADVGGSVILLSATLPMKQKQKLLDTYGLHTDPVENNSAYPLINWRGVNGAQRFDLLAHPEQLPPRFSIQPEPICLADMLPDLTMLERMIAAANAGAQVCLICNLVDVAQVCYQRLKELNNTQVDIDLFHARFTLNDRREKENRVISNFGKNGKRNVGRILVATQVVEQSLDVDFDWLITQHCPADLLFQRLGRLHRHHRKYRPAGFEIPVATILLPDGEGYGRHEHIYSNVRVMWRTQQHIEELNGASLFFPDAYRQWLDSIYDDAEMDEPEWVGNGMDKFESAECEKRFKARKVLQWAEEYSLQDNDETILAVTRDGEMSLPLLPYVQTSSGKQLLDGQVYEDLSHEQQYEALALNRVNVPFTWKRSFSEVVDEDGLLWLEGKQNLDGWVWQGNSIVITYTGDEGMTRVIPANPK
B6: Cas3 K320N (E. coli K12 Type I-E) (protein, UniProt P38036 1-888)
chain: MEPFKYICHYWGKSSKSLTKGNDIHLLIYHCLDVAAVADCWWDQSVVLQNTFCRNEMLSKQRVKAWLLFFIALHDIGKFDIRFQYKSAESWLKLNPATPSLNGPSTQMCRKFNHGAAGLYWFNQDSLSEQSLGDFFSFFDAAPHPYESWFPWVEAVTGHHGFILHSQDQDKSRWEMPASLASYAAQDKQAREEWISVLEALFLTPAGLSINDIPPDCSSLLAGFCSLADWLGSWTTTNTFLFNEDAPSDINALRTYFQDRQQDASRVLELSGLVSNKRCYEGVHALLDNGYQPRQLQVLVDALPVAPGLTVIEAPTGSGNTETALAYAWKLIDQQIADSVIFALPTQATANAMLTRMEASASHLFSSPNLILAHGNSRFNHLFQSIKSRAITEQGQEEAWVQCCQWLSQSNKKVFLGQIGVCTIDQVLISVLPVKHRFIRGLGIGRSVLIVDEVHAYDTYMNGLLEAVLKAQADVGGSVILLSATLPMKQKQKLLDTYGLHTDPVENNSAYPLINWRGVNGAQRFDLLAHPEQLPPRFSIQPEPICLADMLPDLTMLERMIAAANAGAQVCLICNLVDVAQVCYQRLKELNNTQVDIDLFHARFTLNDRREKENRVISNFGKNGKRNVGRILVATQVVEQSLDVDFDWLITQHCPADLLFQRLGRLHRHHRKYRPAGFEIPVATILLPDGEGYGRHEHIYSNVRVMWRTQQHIEELNGASLFFPDAYRQWLDSIYDDAEMDEPEWVGNGMDKFESAECEKRFKARKVLQWAEEYSLQDNDETILAVTRDGEMSLPLLPYVQTSSGKQLLDGQVYEDLSHEQQYEALALNRVNVPFTWKRSFSEVVDEDGLLWLEGKQNLDGWVWQGNSIVITYTGDEGMTRVIPANPK

The assay has as its target T1, Cas1 of E. coli K12 Type I-E CRISPR/Cas complex (E. coli K12) (UniProt Q46896).
T1 sequence: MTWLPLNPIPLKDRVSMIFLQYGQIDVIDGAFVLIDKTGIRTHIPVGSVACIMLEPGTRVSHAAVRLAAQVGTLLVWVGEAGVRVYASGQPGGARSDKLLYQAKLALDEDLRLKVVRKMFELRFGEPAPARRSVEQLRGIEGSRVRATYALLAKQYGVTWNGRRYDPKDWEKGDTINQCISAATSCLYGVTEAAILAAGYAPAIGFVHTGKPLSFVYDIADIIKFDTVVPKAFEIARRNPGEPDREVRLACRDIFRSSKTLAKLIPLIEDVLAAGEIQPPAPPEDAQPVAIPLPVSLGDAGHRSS
Kind of assay: split reporter; SPEC profiling of CRISPR/Cas effectors and Cas3 / Cas2-3 mutants in E. coli cells; sfGFP fluorescence by flow cytometry; interaction intensity normalized to cells expressing wt HRV 3 C protease.
B1: the binding result is “binds”. As for B2, the entry is “binds”.

As to B3, the binding result is listed as “binds”. As for B4, the entry is “binds”. With B5 the entry was “binds”; with B6, “binds”.

The values above are taken from paper PMC8260793, “A split protease-E. coli ClpXP system quantifies protein–protein interactions in Escherichia coli cells” (Communications Biology, 2021).
